# Source: article PMC7862700
# The entries are a selection whose mix differs from that of the whole data set. At the low end of the ranking, values are background and their order means little.
# Assays:
# Assay in all cases: DAPPL (digital affinity profiling via proximity ligation, sequencing)
# Conditions in all cases: 10 mM Tris-HCl pH 7.5, 50 mM NaCl, 1 mM DTT, 4% glycerol, room temperature, 30 min; GST-TFs on glutathione beads, 16-mer random dsDNA library, 0.1% …; high values mean tight binding; double strand, one strand shown; scale: fold enrichment (6-mer frequency, TF over GST control)
# SPIC = molecular target: T1, SPIC (UniProt Q8N5J4)
# T1 sequence: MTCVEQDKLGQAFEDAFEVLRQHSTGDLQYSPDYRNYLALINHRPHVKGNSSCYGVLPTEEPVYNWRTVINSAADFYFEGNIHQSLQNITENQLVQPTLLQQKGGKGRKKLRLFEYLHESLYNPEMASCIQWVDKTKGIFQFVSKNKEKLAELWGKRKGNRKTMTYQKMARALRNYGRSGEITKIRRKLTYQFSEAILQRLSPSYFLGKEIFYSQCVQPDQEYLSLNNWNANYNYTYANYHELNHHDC
# ETV3 = molecular target: T2, ETV3 (UniProt P41162-2)
# T2 sequence: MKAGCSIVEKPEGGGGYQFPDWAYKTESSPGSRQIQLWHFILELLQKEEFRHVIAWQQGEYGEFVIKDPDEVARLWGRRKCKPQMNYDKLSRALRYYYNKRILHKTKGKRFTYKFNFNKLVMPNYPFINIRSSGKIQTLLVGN
# ELK3 = molecular target: T3, ELK3 (UniProt P41970)
# T3 sequence: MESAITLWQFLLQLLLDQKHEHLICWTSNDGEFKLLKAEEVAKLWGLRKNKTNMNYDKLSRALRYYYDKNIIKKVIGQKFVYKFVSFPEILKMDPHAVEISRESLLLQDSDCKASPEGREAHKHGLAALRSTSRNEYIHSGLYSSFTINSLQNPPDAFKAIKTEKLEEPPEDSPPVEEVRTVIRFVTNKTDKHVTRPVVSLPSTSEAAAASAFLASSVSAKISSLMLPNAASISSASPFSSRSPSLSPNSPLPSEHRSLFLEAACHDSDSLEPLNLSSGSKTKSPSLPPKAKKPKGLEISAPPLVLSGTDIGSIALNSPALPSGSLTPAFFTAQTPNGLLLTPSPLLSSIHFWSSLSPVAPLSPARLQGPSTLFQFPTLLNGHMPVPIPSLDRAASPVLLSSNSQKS
sequence,measurement,setting,value
CCACCA,binding signal,SPIC,0.887
same,binding signal,ETV3,0.967
AAACCT,binding signal,SPIC,1.09
same,binding signal,ETV3,1.1
TGCCAC,binding signal,SPIC,1.19
same,binding signal,ETV3,1.18
GCGCTT,binding signal,SPIC,1.26
same,binding signal,ETV3,1.42
TAAGTA,binding signal,SPIC,1.25
same,binding signal,ETV3,1.23
TTAAGG,binding signal,ELK3,1.06
same,binding signal,SPIC,1.23
same,binding signal,ETV3,1.16
ATTGTT,binding signal,ELK3,1.55
same,binding signal,SPIC,1.45
same,binding signal,ETV3,1.56
AACCGA,binding signal,SPIC,1.09
same,binding signal,ETV3,0.977
CCGGGT,binding signal,ELK3,0.989
same,binding signal,SPIC,1.19
same,binding signal,ETV3,1.21
TGGGGT,binding signal,SPIC,0.975
same,binding signal,ETV3,1.14
TAAATC,binding signal,SPIC,1.2
same,binding signal,ETV3,1.18
TAGCAT,binding signal,SPIC,1.07
same,binding signal,ETV3,1.16
GATAGC,binding signal,SPIC,1.07
same,binding signal,ETV3,1.05
CACTGT,binding signal,ELK3,1.03
same,binding signal,SPIC,1.19
same,binding signal,ETV3,1.12
GTCCTC,binding signal,SPIC,1.14
same,binding signal,ETV3,1.2
TCATTG,binding signal,ELK3,0.951
same,binding signal,SPIC,0.901
same,binding signal,ETV3,0.857
TAAGAA,binding signal,ELK3,1.15
same,binding signal,SPIC,1.21
same,binding signal,ETV3,1.07
CATCAG,binding signal,SPIC,0.924
same,binding signal,ETV3,0.96
CAATGA,binding signal,SPIC,0.937
same,binding signal,ETV3,1
GGGTTC,binding signal,ELK3,0.97
same,binding signal,SPIC,1.02
same,binding signal,ETV3,1.1
TTGGTA,binding signal,SPIC,1.2
same,binding signal,ETV3,1.18
CAGCAT,binding signal,SPIC,0.928
same,binding signal,ETV3,0.97
CCTGTG,binding signal,SPIC,1.32
same,binding signal,ETV3,1.07
TGGCCA,binding signal,SPIC,0.971
same,binding signal,ETV3,1
ACTGCA,binding signal,SPIC,1.34
same,binding signal,ETV3,1.17
CATACA,binding signal,ELK3,1.22
same,binding signal,SPIC,0.973
same,binding signal,ETV3,0.986
TGCGAC,binding signal,SPIC,1.3
same,binding signal,ETV3,1.27
CTCCGA,binding signal,SPIC,1.51
same,binding signal,ETV3,1.3
CCGCTG,binding signal,ELK3,0.951
same,binding signal,SPIC,1.08
AATGTA,binding signal,ELK3,1.17
same,binding signal,SPIC,1.12
TTCTGT,binding signal,ELK3,1.33
same,binding signal,SPIC,1.41
TATCTT,binding signal,ELK3,1.24
same,binding signal,SPIC,1.27
TTCTGA,binding signal,ELK3,1.38
same,binding signal,SPIC,1.03
CAGATT,binding signal,ELK3,1.12
same,binding signal,SPIC,0.845
ATTAGG,binding signal,ELK3,1.1
same,binding signal,SPIC,0.984
TTGAGC,binding signal,ELK3,0.862
same,binding signal,SPIC,1.18
TCATGT,binding signal,ELK3,0.995
same,binding signal,SPIC,0.805
TGCCTC,binding signal,ELK3,1.27
same,binding signal,SPIC,1.4

# An excerpt of these results, tab-delimited:
sequence	measurement	setting	value
CCACCA	binding signal	SPIC	0.887
TTAAGG	binding signal	ETV3	1.16
ATTGTT	binding signal	ETV3	1.56
CACTGT	binding signal	SPIC	1.19
CATCAG	binding signal	SPIC	0.924
CTCCGA	binding signal	SPIC	1.51
